At least one structure is not confirmed: it was looked up by name or label, or the drawing left a doubt.
System: 3-day old multispecies oral biofilm (artificial mouth consortium combined with Streptococcus mutans)
Experiment: In vitro removal of biofilm by prototype mouthrinse formulations (Example 8)
Type: cell-based
Conditions: 0 to 0.075%
Description: General Procedures Used to Prepare Biofilm
The analyst used a commercially available fluoride dentifrice (Colgate Pro Clinical) and a soft bristled toothbrush (Colgate 360) for routine oral hygiene for 3 days prior to the start of saliva collection. Saliva was collected in the morning, at least two hours after a meal and was centrifuged at 10,000 rpm for 20 minutes. The supernatant was decanted into a Petri dish and placed under UV for 45 minutes.
Bacteria Preparation: Bacteria were taken from the artificial mouth consortium (containing Actinomyces naeslundii, Streptococcus oralis, Veillonella parvula, Lactobacillus casei, and Fusibacterium nucleatum) and combined with Streptococcus mutans which had been grown separately in a ratio of 2:1. Bacteria were grown in tryptic soy broth (TSB) media with 6% sucrose. […]
Treatment: 500 μL of ionic liquid formulation was added to each well and incubated for 4-30 minutes on a plate shaker at 300 rpm. […] The optical density of each well was measured at 610 nm, and the percentage reduction in biofilm reduction relative to the control (water) was calculated.
Second Treatment: 500 μL of ionic liquid formulation was added to each well and incubated for 4-30 minutes on a plate shaker at 300 rpm. After discarding the supernatant, the optical density was measured and the percentage reduction in biofilm formation relative to the control (water) was calculated. […]

CCCCCCCCCCCCCCCC[n+]1ccccc1 [cetyl pyridinium chloride, reference compound]
impact on biofilm removal, in words: do not impact biofilm removal

— patent US20150335548A1, “Oral Care Composition” (COLGATE-PALMOLIVE COMPANY, priority 2012, published 2015)
